Laboratory results: patent US6673570

Legend:
[1] = biological target: 6xMyc-Smad6S; assay: co-immunoprecipitation from transfected COS7 cells, with and without ALK5ca
[2] = biological target: 6xMyc-Smad6L; assay: as above
[3] = biological target: 6xMyc-Smad4; assay: as above
[4] = biological target: 6xMyc-Smad7; assay: as above
[5] = biological target: 6xMyc-Smad2; assay: as above
[6] = biological target: 6xMyc-Smad3; assay: as above
[7] = biological target: 6xMyc-Smad6S; assay: co-immunoprecipitation from transfected COS7 cells (Flag IP, Myc blot), with and without ALK6ca
[8] = biological target: 6xMyc-Smad6L; assay: as above
[9] = biological target: 6xMyc-Smad4; assay: as above
[10] = biological target: 6xMyc-Smad7; assay: as above

Measured: binding

B1: Flag-tagged AMSH (SAP1/AMSH) (protein, not shown: small tags and cut ends)
chain: MSDHGDVSLPPEDRVRALSQLGSAVEVNEDIPPRRYFRSGVEIIRMASIYSEEGNIEHAFILYNKYITLFIEKLPKHRDYKSAVIPEKKDTVKKLKEIAFPKAEELKAELLKRYTKEYTEYNEEKKKEAEELARNMAIQQELEKEKQRVAQQKQQQLEQEQFHAFEEMIRNQELEKERLKIVQEFGKVDPGLGGPLVPDLEKPSLDVFPTLTVSSIQPSDCHTTVRPAKPPVVDRSLKPGALSNSESIPTIDGLRHVVVPGRLCPQFLQLASANTARGVETCGILCGKLMRNEFTITHVLIPKQSAGSDYCNTENEEELFLIQDQQGLITLGWIHTHPTQTAFLSSVDLHTHCSYQMMLPESVAIVCSPKFQETGFFKLTDHGLEEISSCRQKGFHPHSKDPPLFCSCSHVTVVDRAVTITDLR
binds: all assays above

These are yes or no findings as the source states them, for the method shown. Binding seen in cells or lysates may run through a third protein. Binding can be weak; no strength is given. Sequences can lack the tags named with a protein.
